Assay results taken from PubChem BioAssay AID602296 (Broad Institute, 2012).
The campaign covered roughly 2,000 compounds. About 190 (9.5%) were called active. Inconclusive results (about 14%) are left out.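 How the source made its calls: active means fitted activation curve crossing 40% at a concentration no higher than the sample's top valid tested dose; inconclusive means flat fitted curve at 30% to 70% activation, or poor curve fit; inactive means signal decrease, flat curve within 30%, or the rest.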 The list lacks most of the strong results.

Test: HSF-1 reporter activators over prolonged exposure, confirmation, cell-based, mouse, luciferase, cherry-pick, dose (AID 602296);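 further: test compounds applied by themselves with no MG132 co-treatment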
Settings: NIH3T3-HGL HSF-1 response element luciferase, 48 h; at 26 µM (top of the series) unless noted

activation, inactive:
CCOC(=O)C1=C(C)Nc2ncnn2C1c1ccc2c(c1)OCO2 (stereo not drawn) -2.17%
COc1ccc(NC(=O)c2sccc2SCc2cccc(C(F)(F)F)c2)cc1 -23.8%
COc1ccccc1NC(=O)Nc1nc(CC(=O)N2CCN(c3ccccc3)CC2)cs1 -49.6%
CC(Sc1nnc2ccccn12)C(N)=O (stereo not drawn) -9.32%
O=C(CCN1CCc2ccccc2C(c2ccccc2)C1)c1ccc2c(c1)OCCO2 (stereo not drawn) -101%
COc1cccc(C(=O)c2c(C)c(CCC#N)n3ccccc23)c1OC -4.16%
COc1ccc(N(CC(=O)N2CCc3ccccc32)S(=O)(=O)c2c(C)noc2C)cc1 -3.72%
Cc1ccccc1CS(=O)(=O)c1nnc([C@H](CC(C)C)NC(=O)OC(C)(C)C)o1 -104%
Cc1ccc(S(=O)(=O)Nc2cccc3ncccc23)s1 -106%
CN(C)c1ccc(C(CNC(=O)c2ccccc2)c2c[nH]c3ccccc23)cc1 (stereo not drawn) -28.5%
CCc1ccccc1NC(=O)CC(c1ccc(OC)cc1)n1cccc1 (stereo not drawn) -14.2%
S=c1[nH]c(-c2ccc(Br)cc2)cn1CCc1ccccc1 -16.7%
CC(C)(C)c1cccc(/C=N/O)c1O -3.67%
Cc1ccc(S(=O)(=O)N(C)C)cc1NC(=O)COC(=O)c1c(C)noc1C -11.6%
CC1(C)CN(c2cccc(Br)c2)C1=O -9.54%
COc1cc(/C=C2\SC(=S)N(Nc3ncc(C(F)(F)F)cc3Cl)C2=O)ccc1O -13%
COC(=O)c1cnc2c(c(C)nn2C)c1OC 9.55%
O=C1CSC(=S)N1/N=C/c1cccc(C(F)(F)F)c1 19%
COc1ccc(C2(c3ccc(OC)cc3)NC(=O)N(CC(=O)N(C)c3ccccc3)C2=O)cc1 -1.93%
COC(=O)CN1C(c2cccc(Cl)c2)=Nc2ccc(Cl)cc2C1c1ccccc1 (stereo not drawn) -58.3%
O=S(=O)(Nc1cccc2ccccc12)c1cccc2nonc12 2.78%
Cc1cc(C)cc(-n2c3nc4ccccc4nc3c3c(=O)n(Cc4ccco4)cnc32)c1 -95.5%
S=C(NCc1ccco1)N1CCN(c2ccccc2Cl)CC1 -2.45%
NCCCn1c(C(=O)c2cc(Cl)c(N)c(Cl)c2)c2ccc([N+](=O)[O-])cc2[n+]1[O-] -15.3%
CCOC(=O)c1c(C)[nH]c(C)c1C(=O)COc1ncnc2cc([N+](=O)[O-])ccc12 -4.25%
CC(Sc1nc(-c2ccccc2)cc(C(F)(F)F)n1)C(=O)Nc1sc2c(c1C#N)CCC2 (stereo not drawn) 5.97%
COCCNC(=O)C(c1ccc(C)cc1)N(C(=O)CCC(=O)Nc1ccccn1)c1ccccc1C (stereo not drawn) 0.343%
O=C(Nc1c(C(=O)c2ccccc2)oc2ccccc12)c1cc(-c2ccccc2O)n[nH]1 -12.7%
COc1ccc2nc3cc(Cl)ccc3c(Nc3cc(C(C)C)c(O)cc3C)c2c1 -100%
C/C(CCc1oc2c(Br)cc(Br)cc2c1-c1ccc(C)o1)=N\O -56.5%
Cc1ccc(S(=O)(=O)NC(=O)Nc2ccc(C)cn2)cc1 4.37%
CCCCNC(=S)N(Cc1ccco1)Cc1cc2cc3c(cc2[nH]c1=O)OCCO3 -47%
CCOC(=O)N1CCN(S(=O)(=O)c2cc(Cl)c(OC)cc2Cl)CC1 -9.9%
Cc1oc(-c2ccoc2)nc1CN(CC1CCC(=O)N1)C(C)C (stereo not drawn) 0.391%
O=C(N/N=C1\CC(c2ccccc2)Oc2ccccc21)c1ccc(O)cc1 (stereo not drawn) -3.47%
CC(C)CC(=O)Nc1ccc(N2CCOCC2)cc1 3.39%
COc1cccc(N2CCN(S(=O)(=O)c3ccc(-c4coc(C)n4)cc3)CC2)c1 -29.8%
Cc1[nH]c2ccccc2c1CN1CCN(c2ccccn2)CC1 -15.3%
Cc1ccc(C(c2c(C)nn(-c3ccccc3)c2N)c2c(C)nn(-c3ccccc3)c2N)cc1 -5.45%
N=c1c2c(-c3ccccc3)c(-c3ccccc3)n(Cc3ccco3)c2ncn1CCCN1CCOCC1 -0.688%
Cc1ccc(S(=O)(=O)c2c(C)cc(C)nc2N2CCCCC2)cc1 -41.7%
O=C(O)c1ccc(N(Cc2ccccc2)S(=O)(=O)c2ccccc2)cc1 -0.93%
COc1ccc2nc(Sc3c([N+](=O)[O-])nc(C)n3Cc3ccccc3)[nH]c2c1 -23.5% [at 12 µM]
Fc1ccc(CN2CCN(c3ncnc4scc(-c5ccccc5)c34)CC2)cc1 -66.5%
COc1ccc(NC(=O)C(NCC(C)C)c2ccccc2)cc1Cl (stereo not drawn) -0.667%
C=C(C)Cn1c(SCC(=O)O)nnc1-c1ccc(OC)cc1 -2.32%
COc1ccc(NC(=O)COc2ccccc2Cc2ccccc2)cc1S(N)(=O)=O -11.6%
Cc1cccc(CC(C)NC(=O)c2oc3c(F)cccc3c2C)n1 (stereo not drawn) -2.82%
COc1ccccc1OCc1nnc(SCCN2CCOCC2)o1 18.5%
Cc1cc2c3c(c1)C1(C(=O)N3C(C)(C)CC2C)C(C#N)=C(N)Oc2cc(O)ccc21 (stereo not drawn) -29.6%
CC(=O)NCCc1nc2ccccc2n1CCOc1cccc(C)c1 5.11%
CCOC(=O)c1cc(NC(=O)COc2ccc([N+](=O)[O-])cc2)cc(C(=O)OCC)c1 -1.74%
Cc1ccc(C)c(S(=O)(=O)N2CCN(CC(=O)Nc3cc(C)on3)CC2)c1 -6.94%
Cc1oc(-c2ccccc2F)nc1CS(=O)(=O)CC(=O)NCCCN1CCN(C)CC1 -16.7%
Cn1nnnc1SCCNC/C=C/c1ccccc1 -10.7%
Cc1ccc2nnn(Cc3cccc(C(C)(C)C)c3O)c2c1 -46%
Cc1ccc(N(CC(=O)NCCc2ccc(F)cc2)S(=O)(=O)c2ccc(Cl)c([N+](=O)[O-])c2)c(C)c1 -108%
Cc1cccc(NC(=S)N(CCN(C)C)C(C)c2cccnc2)c1 (stereo not drawn) -1.67%
CN(Cc1ccccc1)c1nc(N)c([N+](=O)[O-])c(NCc2ccccc2)n1 -74.1%
CCOC(=O)C1=CN(Cc2ccc(OC)cc2)C=C(C(=O)OCC)C1c1cccs1 -33.1%
CC(C)C(C(=O)NCc1ccccc1)N(CC1CCCO1)C(=O)CNS(=O)(=O)c1ccccc1 (stereo not drawn) 12.3%
CCOC(=O)c1ccc(N=c2sc(C(=O)OC)cc(=O)n2-c2ccc(C(=O)OCC)cc2)cc1 -88.9%
CCOC(=O)c1ccc(N2C(=O)CC(N3CCC(Nc4ccc(F)cc4)CC3)C2=O)cc1 (stereo not drawn) -17%
CCCCNc1cc(NC(C)=O)cc2cc(OC)c(OC)cc12 -32.6%
OC(CNCc1ccc(F)cc1)(c1ccc(F)cc1)c1ccc(F)cc1 -38.3%
COP(=O)(OC)c1nc(-c2cccc3ccccc23)oc1NCc1ccccc1 -62.3%
CCOC(=O)c1c(S(=O)(=O)NCC2CCN(CCc3cccs3)CC2)c(C)n(C)c1C 5.71%
Cc1ccc(S(=O)(=O)N(C)C)cc1NC(=S)NC(C)CCCC(C)C (stereo not drawn) -50.3%
O=C1C2=C(NC(=S)NC2c2ccc(Cl)cc2)NC(c2ccc(Cl)cc2)N1c1ccc(Cl)cc1 (stereo not drawn) -101%
Cc1[nH]nc(-c2ccc(O)c(C)c2O)c1-c1cnn(-c2ccccc2)c1 -13.3%
O=C(CSc1nnc2c(Cl)cc(C(F)(F)F)cn12)N(Cc1ccccc1)Cc1ccccc1 5.92%
C/C=C1\COC(C(=O)NCc2ccccc2)(C(F)(F)F)C=C1C=C(C)C (stereo not drawn) -18.1%
CCOC(=O)Cn1nnnc1C(C(C)C)N(Cc1cc2c(C)cc(C)cc2[nH]c1=O)C1CCCC1 (stereo not drawn) -57.6%
Cc1ccc(NNC(=O)c2ccno2)c(C)c1 -50.5%
CCOc1cc(/C=N/NC(=O)Cn2nc([N+](=O)[O-])cc2C)cc(Br)c1OCc1ccccc1C -45.6%
CCC(C)NC(=O)c1nc2c(nnn2Cc2ccccc2Cl)c(=O)[nH]1 (stereo not drawn) -8.83%
O=c1c2ccccc2sc2nc(C3CCCCC3)n(Cc3ccco3)c(=O)c12 10.6%
CC1(C)CC(=O)C2=C(C1)N1C(=C(C#N)C2c2ccc(Cl)cc2)N=C(N)c2ccccc21 (stereo not drawn) -53.2% [at 12 µM]
Cc1cc2oc(=O)cc(CSc3nc(N)cc(N)n3)c2cc1C -1.89%
O=C(NC(=S)N1CCN(C/C=C/c2ccccc2)CC1)c1ccc(Cl)nc1 -13.3%
N#Cc1c(-c2ccccc2)c(-c2ccccc2)n(Cc2ccco2)c1NC(=O)c1cccs1 -41.2%
CCn1c(=O)c([N+](=O)[O-])c(Cl)c2ccccc21 -99%
COc1ccc(/C=C/C(O)=C2/C(=O)N(C)C3(C)CC2c2ccccc2O3)cc1 (stereo not drawn) -4.64%
Cc1ccc(C)c(S(=O)(=O)N2CCCCC2CCNC(=O)C(=O)NCCc2ccco2)c1 (stereo not drawn) -22.8%
COc1ccc(/C=N/NC(=O)c2cccnc2)c(C(=O)O)c1OC 11.1%
COc1cc(C(=O)Sc2ccc(Cl)cc2)cc(OC)c1OC -94.6%
Cc1cccc(N=Nc2ccc(O)c3ncccc23)c1 11.9%
CN(C)c1ccc(CNC(=O)c2ccc(CNc3c(N4CCCCC4)c(=O)c3=O)cc2)cc1 6.89%

Random excerpt: 3 entries already listed, in no set order.
activation, inactive:
COc1ccc(C2(c3ccc(OC)cc3)NC(=O)N(CC(=O)N(C)c3ccccc3)C2=O)cc1 -1.93%
Cc1cccc(NC(=S)N(CCN(C)C)C(C)c2cccnc2)c1 (stereo not drawn) -1.67%
CCc1ccccc1NC(=O)CC(c1ccc(OC)cc1)n1cccc1 (stereo not drawn) -14.2%

Arranged by heavy-atom count (rising): three of the compounds above.
activation, inactive:
CC1(C)CN(c2cccc(Br)c2)C1=O -9.54%
S=c1[nH]c(-c2ccc(Br)cc2)cn1CCc1ccccc1 -16.7%
COc1ccc(NC(=O)COc2ccccc2Cc2ccccc2)cc1S(N)(=O)=O -11.6%

Two neighbouring records already listed:
activation, inactive:
CCOC(=O)c1c(C)[nH]c(C)c1C(=O)COc1ncnc2cc([N+](=O)[O-])ccc12 -4.25%
CC(Sc1nc(-c2ccccc2)cc(C(F)(F)F)n1)C(=O)Nc1sc2c(c1C#N)CCC2 (stereo not drawn) 5.97%
